Test results reported in patent US20260337229A1 (Seattle Children's Hospital (d/b/a Seattle Children's …, priority 2022, published 2026).
“And” between values parts separate entries of the source, which are not always exact repeats. Equal values may be shown once. “Also recorded” adds a separate entry of the source. Not every detail of the peptide structures is certain; ends, links or a residue may be inferred. Starred links: 1 amine or outer side, 2 acyl side, 3 side chain; linkers in the order of their positions; H or OH if unused. Positions of bridges follow the written chain, without caps; N, C: chain ends. Non-standard residues stand in square brackets, D forms with d. Residues, ends and D or L forms follow the SMILES beside them. Groups on a side chain read outwards from the residue. *: point of attachment. PEG8 = NCCOCCOCCOCCOCCOCCOCCOCCOCCC(=O)O; Palmitoyl = CCCCCCCCCCCCCCCC(=O)*; hCys = N[C@@H](CCS)C(=O)O; X1 = O=C(CC[*:2])[*:1]

By UniProt entry, the sequences of proteins in these tests, tags left out.
UniProt P37288, whole entry: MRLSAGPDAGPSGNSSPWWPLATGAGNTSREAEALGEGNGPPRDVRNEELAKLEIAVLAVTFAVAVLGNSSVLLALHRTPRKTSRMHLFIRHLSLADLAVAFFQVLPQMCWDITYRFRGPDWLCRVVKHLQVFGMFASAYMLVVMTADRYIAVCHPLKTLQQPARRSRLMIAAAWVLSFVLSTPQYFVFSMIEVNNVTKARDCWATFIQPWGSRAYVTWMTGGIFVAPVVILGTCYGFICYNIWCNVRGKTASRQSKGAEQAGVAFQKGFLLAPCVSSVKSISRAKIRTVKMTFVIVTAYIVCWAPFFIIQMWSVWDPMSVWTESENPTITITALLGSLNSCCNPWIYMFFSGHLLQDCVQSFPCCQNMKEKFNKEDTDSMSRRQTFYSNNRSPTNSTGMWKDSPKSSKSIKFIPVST

Assays:
[1] = Dose escalation study in DIO rats; format: in vivo, male DIO Sprague Dawley rats
Text: Male DIO Sprague Dawley rats (n=4) were fed 60% HF diet (formula: D12492; Research Diets, Inc., New Brunswick, NJ, USA; 5.21 kcal/g) for 16 weeks prior to the start of the study. Rats were changed to being singly housed and allowed to acclimate for at least one week prior to the start of this study. Animals averaged 844.15 Z 99.95 g at baseline. Baseline measures of body weight, food intake, and water intake were taken for 6 days before drug administration began. Doses for the dose escalation study included 1, 2, 5, 10, 20, 50, and 100 nmol/kg. Body weight, food and water intake were assessed just prior to the start of the dark cycle. […] In certain embodiments, the greatest anorectic effect achieved with ASK1476 occurred at the 300 nmol/kg/d dose yielding a ~34% reduction in caloric intake while ASK2131 dosed at 2 nmol/kg/d yielded a ~55% reduction in caloric intake.

human V1a receptor = molecular target: T1, human V1a receptor (Homo sapiens, UniProt P37288); experiment: Cytosolic Ca2+ mobilization agonist assay at human V1a receptor; format: cell-based; conditions: agonist mode, in words
T1 construct: expressed in transfected cells; host or cells: CHO
Description: The cells were suspended in DMEM buffer (Invitrogen, Carlsbad, CA) complemented with 0.1% FCSd, then distributed in microplates at a density of 4.5×10^4 cells/well. The fluorescent probe (Fluo4 Direct, Invitrogen, Carlsbad, CA) mixed with probenicid in HBSS buffer (Invitrogen, Carlsbad, CA) complemented with 20 mM HEPES (Invitrogen, Carlsbad, CA) (pH 7.4) was then added into each well and equilibrated with the cells for 60 min at 37° C. then 15 min at 22° C. The assay plates were positioned in a microplate reader (CellLux, PerkinElmer) followed by the addition of the test compound ASK2131, reference agonist or HBSS buffer (basal control), and the measurements of changes in fluorescence intensity which varies proportionally to the free cytosolic Ca^2+ ion concentration. For stimulated control measurements, AVP at 1 μM was added in separate assay wells. The results were expressed as a percent of the control response to 1 μM AVP. The standard reference agonist was AVP, which was tested in each experiment at several concentrations to generate a concentration-response curve from which its EC50 value was calculated.

[2] = Dose escalation study in lean rats; format: in vivo, lean Sprague-Dawley rats; conditions: in words
UCP1 mRNA = experiment: qRT-PCR UCP1 mRNA in IWAT and IBAT of DIO rats; format: in vivo, rat; conditions: 22-day treatment, in words
[3] = 22-day long-term study in DIO rats (body weight, food and water intake); format: in vivo, male Sprague Dawley rats
Text: For studies utilizing a DIO rat model, male Sprague Dawley rats (CD-IGS rats, strain 001; approximately 4 weeks of age; 51-75 g) purchased from Charles River Laboratories (Wilmington, MA, USA). These rats were fed a diet of 60% calories from fat (Formula: D12492; Research Diets, Inc., New Brunswick, NJ, USA; 5.21 kcal/g) for 4.5 to 6 months prior to the start of the study to induce obesity. For studies utilizing lean rats, male Sprague Dawley rats (CD-IGS rats, strain 001; 226-250 g) purchased from Charles River Laboratories (Wilmington, MA, USA). All rats had ad libitum access to food and water and were kept on a 12 h light/12 h dark cycle. Animals were individually housed in a temperature (22±1° C.) and humidity (57±4%) controlled room. All body weight measurements were taken just prior to the start of the dark cycle.
(§1) Male Sprague Dawley rats were fed 60% HF diet (D12492; Research Diets, Inc; New Brunswick, NJ; 5.21 kcal/g) for 16 weeks prior to the start of the study. Rats were then singly house in BioDAQ cages (Research Diets, Inc.; New Brunswick, NJ) and allowed to acclimate to their new environment for 10 days. Baseline measures of body weight, food intake and water intake were taken for one week to balance the groups and create feeding pairs. Each group (n=6 animals/group) averaged 714.47±81.6 g at baseline (Table 3).
(§2) Effects of ASK2131 were compared to a vehicle-treated group, OXT-treated group, as well as a pair-fed control group. Three days of baseline measures were taken before subcutaneous treatment administration began on day 4 of the study. Assessments were made to body weight, food intake and water intake. ASK2131 was administered at 50 nmol/kg throughout the entire study period. […] OXT-treated animals were started at 50 nmol/kg dose for two days, followed by 150 nmol/kg, then 300 nmol/kg, until ending at 600 nmol/kg for the remainder of the study.

Cox8b mRNA = experiment: qRT-PCR Cox8b mRNA in IWAT and IBAT of DIO rats; format: in vivo, rat; conditions: 22-day treatment, in words
[4] = Blood parameters after 22-day treatment of DIO rats; format: in vivo, male Sprague Dawley rats
Text: as §1, §2
Cardiac puncture was used to collect blood for analysis 2 h post final injection. Commercially available enzyme-linked immunosorbent assays (ELISA) were used for quantitative assessment of leptin (cat. #EZRL-83K; MilliporeSigma, Burlington, MA, USA), insulin (cat. #EZRMI-13K; MilliporeSigma, Burlington, MA, USA), and adiponectin (cat. #EZRAPD-62K MilliporeSigma, Burlington, MA, USA). Serum samples were diluted 1:500 for the adiponectin ELISA using the sample diluent provided with the kit. All ELISAs were completed following the manufacturers recommendations. Levels of glucose, cholesterol (total, HDL, and calculated LDL), triglycerides, ALT, and AST were determined in the serum on a Modular P chemistry analyzer (Roche Diagnostics, Risch-Rotkreuz, Switzerland) by the University of Washington Nutrition and Obesity Research Center's Analytic Core (Seattle, WA, USA).

[5] = ELISA, 2 h post final injection, 22 days sc, mean ± SEM, OXT n=4
[6] = serum 2 h post final injection, 22 days sc, mean ± SEM, OXT n=4

CCCCCCCCCCCCCCCC(=O)NCCOCCOCCOCCOCCOCCOCCOCCOCCC(=O)NCCCC[C@H](NC(=O)CNC(=O)[C@@H]1CCSCCC(=O)N[C@@H](Cc2ccc(O)cc2)C(=O)N[C@@H]([C@@H](C)CC)C(=O)N[C@@H](CCC(N)=O)C(=O)N[C@@H](CC(N)=O)C(=O)N1)C(=O)NCC(N)=O [ASK2131] (YIQN[hCys]GK([PEG8-Palmitoyl])G-NH2; linker N-5 via X1)
decrease in food intake compared to baseline ([1]; 2 nmol/kg, DIO rats): ~ 47% and 47%
decrease on body weight compared to baseline ([1]; 2 nmol/kg, after only two treatments): ~ 4%
reduction in caloric intake ([1]; 2 nmol/kg/d): ~ 55%
shape of dose response, food intake ([1]; DIO rats, in words): U-shaped response
reduction of food intake ([1]; doses <2 nmol/kg and >5 nmol/kg, DIO rats): 20-25%
reductions of food intake and body weight at higher doses ([1]; higher doses, FIGS. 4A-4B, in words): did not result in greater reductions of food intake and body weight
water intake ([1]; increasing dosing vs baseline, in words): modest decline with treatment onset but was not significantly different from baseline
body weight and food intake at low dose ([1]; low dose, FIGS. 4A-4B, in words): effective in significantly reducing body weight and food intake
loss in body weight compared to baseline ([1]; over dose escalation 1 to 100 nmol/kg, average per rat): 8.4%
V1aR activation (human V1a receptor): did not display V1aR activation
shape of dose response [2]: U-shaped
UCP1 mRNA levels in IWAT and IBAT (UCP1 mRNA): lack of stimulation
food intake at days 1 and 2 compared to baseline ([3]; 50 nmol/kg, FIG. 3A, in words): Strong reductions of food intake
decline in food intake ([3]; 50 nmol/kg, dose chosen on pilot experiments): 25-30%
decrease in food intake, first week of treatment ([3]; 50 nmol/kg, first week): ~40%
decrease in food intake over time ([3]; 50 nmol/kg, over time): 25-30%
weight loss compared to pair-fed counterparts ([3]; 50 nmol/kg, in words): not driven solely by the reduction in food intake
Post-treatment body weight ([3]; 22 days sc, ASK2131 50 nmol/kg, OXT titrated 50 to 600 nmol/kg, mean ± SEM): 676 ± 42 g
% change in body weight ([3]; 22 days sc, ASK2131 50 nmol/kg, OXT titrated 50 to 600 nmol/kg, mean ± SEM, superscripts b: p<0.01, c: p<0.001 vs vehicle, d: p<0.001 vs OXT): −6.6 ± 1.3 ^c, d %
body weight, predicted mean difference (PMD) vs vehicle ([3]; after 2 days of 50 nmol/kg, 95% CI −6.52 to −1.15%, p=0.0011): −3.83%
body weight reduction over vehicle treatment ([3]; at study completion, 50 nmol/kg): 11.5%
food intake reduction, ASK2131 vs. OXT ([3]; daily and cumulative, ASK2131 50 nmol/kg/d, OXT up to 600 nmol/kg, in words): food intake reduction was more pronounced in response to ASK2131 vs. OXT; also recorded: more reduced in response to ASK2131 than to oxytocin
reduction of food intake compared to baseline ([3]; day 3, 50 nmol/kg/d): 39±9%
food intake, PMD vs vehicle-treated group ([3]; day 3, 50 nmol/kg/d, 95% CI −80.47 to −11.51%, p=0.0102): −45.99%
water intake compared to vehicle ([3]; only on the second day of treatment, 95% CI 0.8276 to 67.46, p=0.0422, in words): significantly reduced compared to vehicle only on the second day of treatment
daily food intake in comparison to vehicle ([3]; whole duration of 22-day treatment, FIG. 2D, in words): reduced during the whole duration of 22-day treatment
Cox8b mRNA levels in IWAT and IBAT (Cox8b mRNA): lack of stimulation
cholesterol compared to vehicle ([4]; 22 days, 95% CI 0.075 to 51.92, p=0.0493, in words): significant decreases
LDL compared to vehicle ([4]; 22 days, 95% CI 0.6800 to 37.92, p=0.0415, in words): significant decreases
HDL compared to vehicle ([4]; 22 days, 95% CI 0.7079 to 16.89, p=0.0318, in words): significant decreases
LDL, calculated ([4]; Calculated LDL = Cholesterol − (HDL + Triglycerides/5), 22 days sc, mean ± SEM, OXT n=4): 15 ± 5 mg/dL
Adiponectin [4, 5]: 62.4 ± 7.3 ng/mL
Insulin [4, 5]: 6.7 ± 1.0 ng/mL
Leptin [4, 5]: 39.0 ± 9.1 mg/dL
Glucose [4, 6]: 237 ± 12 mg/dL
HDL [4, 6]: 21 ± 2 mg/dL
Triglycerides [4, 6]: 182 ± 30 mg/dL
Cholesterol ([4]; serum 2 h post final injection, 22 days sc, mean ± SEM, OXT n=4, superscript b: p<0.01 vs vehicle): 67 ± 6 ^b mg/dL
